According to the supplement of paper PMC10849652:
Some of the results follow.

The chains behind the UniProt entries cited, without tags or fusion partners. Where a name states a change or a piece, a line headed by the entry shows the natural chain unless it says otherwise.
UniProt Q9UKM9: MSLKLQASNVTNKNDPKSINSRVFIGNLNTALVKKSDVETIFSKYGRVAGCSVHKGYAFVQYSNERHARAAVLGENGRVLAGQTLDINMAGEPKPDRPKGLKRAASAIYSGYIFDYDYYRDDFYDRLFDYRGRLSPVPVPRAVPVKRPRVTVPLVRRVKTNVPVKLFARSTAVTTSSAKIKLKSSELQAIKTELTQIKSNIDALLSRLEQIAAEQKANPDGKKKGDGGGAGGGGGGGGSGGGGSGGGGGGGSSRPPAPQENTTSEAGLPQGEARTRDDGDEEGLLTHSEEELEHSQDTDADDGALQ
UniProt Q96I23: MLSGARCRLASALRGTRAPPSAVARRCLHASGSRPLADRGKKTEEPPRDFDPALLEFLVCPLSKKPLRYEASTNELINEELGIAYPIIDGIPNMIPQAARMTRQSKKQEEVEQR
UniProt Q8WUD1: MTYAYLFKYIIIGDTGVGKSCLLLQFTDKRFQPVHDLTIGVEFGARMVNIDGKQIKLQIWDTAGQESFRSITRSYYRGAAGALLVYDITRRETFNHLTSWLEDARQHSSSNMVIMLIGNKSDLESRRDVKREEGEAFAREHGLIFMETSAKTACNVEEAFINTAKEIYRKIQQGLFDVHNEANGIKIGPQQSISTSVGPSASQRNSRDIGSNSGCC
UniProt Q9H974: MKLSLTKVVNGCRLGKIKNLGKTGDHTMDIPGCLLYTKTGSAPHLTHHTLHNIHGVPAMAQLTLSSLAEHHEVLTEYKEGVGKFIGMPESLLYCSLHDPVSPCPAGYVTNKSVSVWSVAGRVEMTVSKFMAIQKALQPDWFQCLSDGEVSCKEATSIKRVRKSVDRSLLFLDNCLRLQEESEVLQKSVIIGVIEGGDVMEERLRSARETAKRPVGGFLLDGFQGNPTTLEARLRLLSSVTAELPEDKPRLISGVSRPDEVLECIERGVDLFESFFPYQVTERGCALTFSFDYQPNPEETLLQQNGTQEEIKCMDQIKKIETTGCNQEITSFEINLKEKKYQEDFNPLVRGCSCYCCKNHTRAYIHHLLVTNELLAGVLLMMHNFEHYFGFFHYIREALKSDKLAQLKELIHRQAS
UniProt Q8WZA2: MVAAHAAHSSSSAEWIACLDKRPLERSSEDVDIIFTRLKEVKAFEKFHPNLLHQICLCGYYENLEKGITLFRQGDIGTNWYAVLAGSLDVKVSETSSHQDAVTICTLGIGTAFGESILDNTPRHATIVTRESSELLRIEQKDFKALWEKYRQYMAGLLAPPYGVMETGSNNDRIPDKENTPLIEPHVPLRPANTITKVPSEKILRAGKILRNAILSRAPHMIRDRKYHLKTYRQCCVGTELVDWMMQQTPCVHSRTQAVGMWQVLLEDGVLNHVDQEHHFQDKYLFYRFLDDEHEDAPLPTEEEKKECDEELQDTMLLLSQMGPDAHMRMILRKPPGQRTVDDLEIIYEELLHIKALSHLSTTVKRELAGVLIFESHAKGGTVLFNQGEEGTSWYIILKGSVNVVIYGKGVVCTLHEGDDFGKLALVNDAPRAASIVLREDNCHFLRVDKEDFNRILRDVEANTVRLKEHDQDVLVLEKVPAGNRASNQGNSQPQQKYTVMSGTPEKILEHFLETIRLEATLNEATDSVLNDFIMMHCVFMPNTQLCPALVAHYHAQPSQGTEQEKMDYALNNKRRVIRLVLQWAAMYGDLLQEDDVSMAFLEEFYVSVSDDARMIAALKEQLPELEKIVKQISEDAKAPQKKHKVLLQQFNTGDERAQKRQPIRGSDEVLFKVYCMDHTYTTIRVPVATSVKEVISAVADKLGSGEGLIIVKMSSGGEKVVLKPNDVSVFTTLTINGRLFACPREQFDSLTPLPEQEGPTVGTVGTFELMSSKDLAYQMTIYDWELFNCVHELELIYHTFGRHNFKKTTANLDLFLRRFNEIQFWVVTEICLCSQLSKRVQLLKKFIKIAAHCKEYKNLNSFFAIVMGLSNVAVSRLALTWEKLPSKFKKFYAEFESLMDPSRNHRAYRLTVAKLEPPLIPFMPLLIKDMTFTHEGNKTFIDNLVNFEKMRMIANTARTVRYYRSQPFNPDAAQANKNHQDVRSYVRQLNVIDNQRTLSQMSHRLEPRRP
UniProt Q9NRW1: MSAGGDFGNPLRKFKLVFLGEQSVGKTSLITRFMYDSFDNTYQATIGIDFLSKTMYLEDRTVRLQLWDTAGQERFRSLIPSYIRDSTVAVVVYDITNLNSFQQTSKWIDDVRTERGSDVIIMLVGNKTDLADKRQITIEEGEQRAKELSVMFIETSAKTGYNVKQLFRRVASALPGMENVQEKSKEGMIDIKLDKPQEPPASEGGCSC
UniProt Q6WKZ4: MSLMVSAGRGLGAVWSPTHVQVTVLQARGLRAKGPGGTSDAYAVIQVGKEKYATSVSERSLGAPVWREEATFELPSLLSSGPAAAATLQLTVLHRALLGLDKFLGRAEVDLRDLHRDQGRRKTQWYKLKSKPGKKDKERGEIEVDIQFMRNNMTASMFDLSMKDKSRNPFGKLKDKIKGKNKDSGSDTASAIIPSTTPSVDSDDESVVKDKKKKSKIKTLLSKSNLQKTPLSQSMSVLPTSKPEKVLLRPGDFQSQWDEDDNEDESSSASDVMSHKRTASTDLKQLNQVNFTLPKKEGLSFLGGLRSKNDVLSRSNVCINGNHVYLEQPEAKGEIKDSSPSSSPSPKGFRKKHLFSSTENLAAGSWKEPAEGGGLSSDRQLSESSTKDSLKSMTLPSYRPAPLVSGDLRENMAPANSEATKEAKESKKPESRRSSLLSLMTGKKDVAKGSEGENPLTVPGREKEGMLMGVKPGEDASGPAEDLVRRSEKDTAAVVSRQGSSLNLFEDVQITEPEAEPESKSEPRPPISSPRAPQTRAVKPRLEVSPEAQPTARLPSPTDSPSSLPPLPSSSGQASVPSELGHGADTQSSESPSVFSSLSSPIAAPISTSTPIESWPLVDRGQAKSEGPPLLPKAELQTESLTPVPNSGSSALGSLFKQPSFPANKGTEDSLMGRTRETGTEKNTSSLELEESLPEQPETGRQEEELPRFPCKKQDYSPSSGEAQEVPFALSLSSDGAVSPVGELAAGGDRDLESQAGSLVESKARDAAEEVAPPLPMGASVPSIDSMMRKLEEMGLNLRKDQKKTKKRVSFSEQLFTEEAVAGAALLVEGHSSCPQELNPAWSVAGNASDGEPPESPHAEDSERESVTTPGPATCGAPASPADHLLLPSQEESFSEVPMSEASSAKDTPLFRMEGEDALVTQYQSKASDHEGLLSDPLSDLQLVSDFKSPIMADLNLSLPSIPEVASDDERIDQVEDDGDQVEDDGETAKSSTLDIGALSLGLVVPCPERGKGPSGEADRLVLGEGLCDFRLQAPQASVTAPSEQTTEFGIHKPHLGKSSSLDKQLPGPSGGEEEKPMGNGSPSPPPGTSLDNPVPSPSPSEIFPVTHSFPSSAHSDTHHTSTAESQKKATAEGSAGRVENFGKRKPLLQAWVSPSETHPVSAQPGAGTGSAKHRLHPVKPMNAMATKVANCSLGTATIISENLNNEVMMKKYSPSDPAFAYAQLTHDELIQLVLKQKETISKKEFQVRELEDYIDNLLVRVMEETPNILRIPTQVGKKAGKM
UniProt Q9NX57: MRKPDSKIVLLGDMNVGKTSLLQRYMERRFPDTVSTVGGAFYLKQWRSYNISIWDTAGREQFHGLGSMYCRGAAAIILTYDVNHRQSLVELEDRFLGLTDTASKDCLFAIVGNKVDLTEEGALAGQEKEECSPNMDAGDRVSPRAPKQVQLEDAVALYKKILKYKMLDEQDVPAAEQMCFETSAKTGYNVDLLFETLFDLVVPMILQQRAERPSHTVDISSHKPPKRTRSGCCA
UniProt P61006: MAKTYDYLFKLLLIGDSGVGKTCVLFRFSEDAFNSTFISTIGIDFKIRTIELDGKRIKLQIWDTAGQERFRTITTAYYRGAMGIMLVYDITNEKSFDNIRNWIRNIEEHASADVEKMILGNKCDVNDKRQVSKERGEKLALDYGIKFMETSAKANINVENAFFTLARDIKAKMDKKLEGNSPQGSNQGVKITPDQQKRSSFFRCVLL
UniProt Q13905: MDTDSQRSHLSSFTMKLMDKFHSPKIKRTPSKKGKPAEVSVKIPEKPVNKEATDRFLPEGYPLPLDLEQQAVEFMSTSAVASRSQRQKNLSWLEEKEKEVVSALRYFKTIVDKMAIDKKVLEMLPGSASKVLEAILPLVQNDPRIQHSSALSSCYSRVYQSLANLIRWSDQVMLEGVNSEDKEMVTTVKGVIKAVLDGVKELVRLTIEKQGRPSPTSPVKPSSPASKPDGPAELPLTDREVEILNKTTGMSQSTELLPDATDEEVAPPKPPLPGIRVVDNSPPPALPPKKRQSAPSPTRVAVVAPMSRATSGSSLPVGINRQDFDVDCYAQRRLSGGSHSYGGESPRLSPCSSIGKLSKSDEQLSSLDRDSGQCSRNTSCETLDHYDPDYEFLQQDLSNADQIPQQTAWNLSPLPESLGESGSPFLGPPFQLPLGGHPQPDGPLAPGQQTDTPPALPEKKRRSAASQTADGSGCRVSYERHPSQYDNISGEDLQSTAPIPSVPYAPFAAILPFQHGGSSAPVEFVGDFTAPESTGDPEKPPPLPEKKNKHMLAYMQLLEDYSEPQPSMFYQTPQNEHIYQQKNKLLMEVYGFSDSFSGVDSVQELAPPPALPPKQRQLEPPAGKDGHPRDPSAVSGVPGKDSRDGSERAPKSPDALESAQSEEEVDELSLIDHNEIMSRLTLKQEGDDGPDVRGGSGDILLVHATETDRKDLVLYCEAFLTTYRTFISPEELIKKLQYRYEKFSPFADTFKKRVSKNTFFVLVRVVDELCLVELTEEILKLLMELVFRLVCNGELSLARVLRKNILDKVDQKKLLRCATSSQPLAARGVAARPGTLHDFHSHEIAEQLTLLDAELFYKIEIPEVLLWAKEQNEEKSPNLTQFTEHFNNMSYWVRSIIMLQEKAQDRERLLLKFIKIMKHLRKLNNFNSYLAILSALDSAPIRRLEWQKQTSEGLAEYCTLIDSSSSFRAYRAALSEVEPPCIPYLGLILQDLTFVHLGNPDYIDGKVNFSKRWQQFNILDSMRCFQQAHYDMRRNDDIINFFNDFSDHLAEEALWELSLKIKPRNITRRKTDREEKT
UniProt Q9NR77: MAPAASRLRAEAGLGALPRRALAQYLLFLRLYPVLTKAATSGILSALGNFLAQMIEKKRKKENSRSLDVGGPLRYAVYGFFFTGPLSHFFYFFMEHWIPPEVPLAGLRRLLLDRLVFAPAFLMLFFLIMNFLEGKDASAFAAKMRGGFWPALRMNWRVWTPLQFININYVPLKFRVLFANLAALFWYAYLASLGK
UniProt Q15286: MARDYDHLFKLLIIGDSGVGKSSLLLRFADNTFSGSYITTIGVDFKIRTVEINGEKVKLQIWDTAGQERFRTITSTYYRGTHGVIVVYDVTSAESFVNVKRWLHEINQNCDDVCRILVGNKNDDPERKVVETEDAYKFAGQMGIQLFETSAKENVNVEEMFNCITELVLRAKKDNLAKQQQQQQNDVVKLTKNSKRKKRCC
UniProt Q53H96: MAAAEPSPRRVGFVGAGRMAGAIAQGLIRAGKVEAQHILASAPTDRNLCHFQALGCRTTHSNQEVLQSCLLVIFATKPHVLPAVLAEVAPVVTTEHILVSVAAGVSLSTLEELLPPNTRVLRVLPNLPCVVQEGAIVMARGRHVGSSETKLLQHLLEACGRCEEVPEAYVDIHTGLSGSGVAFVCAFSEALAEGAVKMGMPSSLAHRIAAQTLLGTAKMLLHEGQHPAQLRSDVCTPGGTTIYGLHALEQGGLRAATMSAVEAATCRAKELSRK
UniProt P61018: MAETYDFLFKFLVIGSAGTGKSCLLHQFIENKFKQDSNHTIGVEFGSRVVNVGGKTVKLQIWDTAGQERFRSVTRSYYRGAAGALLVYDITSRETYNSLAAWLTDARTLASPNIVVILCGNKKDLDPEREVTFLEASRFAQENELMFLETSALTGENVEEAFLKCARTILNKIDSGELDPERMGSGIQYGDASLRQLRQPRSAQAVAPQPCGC
UniProt Q9NP72: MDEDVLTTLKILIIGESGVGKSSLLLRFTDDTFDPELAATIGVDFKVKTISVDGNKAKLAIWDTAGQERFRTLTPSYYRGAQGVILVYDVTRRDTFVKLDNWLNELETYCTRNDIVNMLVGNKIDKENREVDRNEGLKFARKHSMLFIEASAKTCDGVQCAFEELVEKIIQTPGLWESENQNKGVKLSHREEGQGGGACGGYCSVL
UniProt Q969Q5: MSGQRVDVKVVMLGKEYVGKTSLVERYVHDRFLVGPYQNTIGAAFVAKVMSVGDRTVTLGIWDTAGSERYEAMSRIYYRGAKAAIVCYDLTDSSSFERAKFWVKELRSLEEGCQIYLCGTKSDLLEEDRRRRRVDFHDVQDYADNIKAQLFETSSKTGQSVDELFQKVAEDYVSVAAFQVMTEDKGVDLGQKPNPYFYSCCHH
UniProt Q13637: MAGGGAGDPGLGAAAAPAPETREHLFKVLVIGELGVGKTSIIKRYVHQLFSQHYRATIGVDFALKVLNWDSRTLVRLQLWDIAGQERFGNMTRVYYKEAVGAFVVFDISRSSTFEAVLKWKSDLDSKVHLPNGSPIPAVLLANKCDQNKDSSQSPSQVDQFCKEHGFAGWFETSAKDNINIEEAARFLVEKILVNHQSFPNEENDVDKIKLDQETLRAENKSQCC

What follows are targets tested with c1cn2cc(-c3ccc4cn[nH]c4c3)nc(Nc3ccc(N4CCOCC4)cc3)c2n1 [entospletinib] (assay: log2 fold change, soluble protein after heating vs DMSO (PISA); higher = thermal stabilisation; K562 lysate, 10 uM; active = over 0.2 and 3.5 SD of the protein, either way, in both replicates (recomputed)).
Summary of the method: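 Thermal stability, expressed as log-two fold change relative to solvent controls, is given from duplicates. Crude K562 extract in PBS pH 7.4 with 1 mM MgCl2, at 1 mg/mL protein, was treated with 10 μM compound for 30 min and heated in aliquots for 3 min across 48°C-58°C. After pooling, adjustment to 0.5% NP-40 at 4°C and centrifugation at 21,000xg for 90 min, supernatant protein was measured by TMTpro 16plex LC-MS/MS with channel sums equalised.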

log2 fold change, inactive:
RALY (UniProt Q9UKM9) 0.006
PYURF (UniProt Q96I23) -0.048
RAB2B (UniProt Q8WUD1) -0.019
QTRT2 isoform 4 (UniProt Q9H974) 0.022
RAPGEF4 (UniProt Q8WZA2) 0.014
PYGL (UniProt P06737) -0.022
RAB6B (UniProt Q9NRW1) -0.023
RAN (UniProt P62826) -0.004
RAB11FIP1 (UniProt Q6WKZ4) -0.004
RANBP2 (UniProt P49792) -0.006
RAB20 (UniProt Q9NX57) -0.012
RAB8A (UniProt P61006) -0.003
RAPGEF1 isoform 3 (UniProt Q13905) -0.022
PXMP2 (UniProt Q9NR77) 0.02
RAB35 (UniProt Q15286) -0.077
PYCR3 (UniProt Q53H96) -0.001
RAB4B isoform 2 (UniProt P61018) 0.003
QPCTL (UniProt Q9NXS2) -0.024
RAB18 isoform 2 (UniProt Q9NP72) -0.013
RAB24 (UniProt Q969Q5) -0.014
RAF1 isoform 2 (UniProt P04049) -0.015
RAB32 (UniProt Q13637) -0.028

No new results follow: an excerpt of the list.
log2 fold change, inactive:
PXMP2 (UniProt Q9NR77) 0.02
RAB35 (UniProt Q15286) -0.077
PYCR3 (UniProt Q53H96) -0.001
RAB4B isoform 2 (UniProt P61018) 0.003
